# PubChem BioAssay AID1671190 (National Center for Advancing Translational Sciences (NCATS), 2021)
# Sequences of proteins named here, by UniProt entry; tags and fusion partners are left off. A change or cut given only in a name is not applied to a line headed by its entry.
# UniProt P18054: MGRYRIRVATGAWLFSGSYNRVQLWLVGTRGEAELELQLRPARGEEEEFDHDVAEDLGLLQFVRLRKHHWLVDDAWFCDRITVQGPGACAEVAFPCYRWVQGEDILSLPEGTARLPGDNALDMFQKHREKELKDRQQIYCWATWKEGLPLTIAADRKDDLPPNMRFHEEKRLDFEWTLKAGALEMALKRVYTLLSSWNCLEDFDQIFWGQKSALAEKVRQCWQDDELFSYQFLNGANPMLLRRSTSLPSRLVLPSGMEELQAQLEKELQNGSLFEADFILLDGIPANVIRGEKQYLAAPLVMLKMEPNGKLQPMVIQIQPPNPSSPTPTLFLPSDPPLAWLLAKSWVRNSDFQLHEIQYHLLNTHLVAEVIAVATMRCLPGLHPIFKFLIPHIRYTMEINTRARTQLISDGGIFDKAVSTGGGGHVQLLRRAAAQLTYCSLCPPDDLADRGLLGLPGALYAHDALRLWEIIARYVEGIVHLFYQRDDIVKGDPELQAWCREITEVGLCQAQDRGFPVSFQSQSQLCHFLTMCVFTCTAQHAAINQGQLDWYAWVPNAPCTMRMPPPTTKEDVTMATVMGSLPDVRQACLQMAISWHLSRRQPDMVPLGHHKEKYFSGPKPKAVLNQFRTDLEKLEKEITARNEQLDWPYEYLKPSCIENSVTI
# The campaign covered roughly 580,000 compounds. About 6,100 (1.1%) were called active. Inconclusive results, whose numbers are uncertain, are shown with a selection of clear calls. Calls follow the shape of the dose curve; as a rule, active = well fitted inhibition curve with a large enough effect; inconclusive = small, poorly fitted or top-dose-only effect, or another doubt; inactive = no such curve, though single readings can be large or run the other way. Where the call is inconclusive, the potency comes from a doubtful curve fit.
# Biological target: Polyunsaturated fatty acid lipoxygenase ALOX12 (Homo sapiens) (UniProt P18054)
# Assay: Primary qHTS assay for inhibitors of human arachidonate 12S-lipoxygenase (ALOX12): Round 2
# Settings: purified 12hLO, xylenol orange hydroperoxide absorbance; activity change, negative = inhibition: at 108 µM (top of the series) unless noted
# In short: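 Purified human 12hLO (150 nM final) in 25 mM Hepes, 0.01% Triton X-100, pH 7.0 was preincubated 15 min at room temperature with compound. Then 40 uM arachidonic acid was added, 30 min. Hydroperoxide was read by Fe-XO absorbance ratio 573/405 nm.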
# % is scaled to controls: 0 for no effect and ±100 for the full control effect; potency is read from the fitted curve at half-maximal effect.
SMILES,Potency,"activity change, negative = inhibition"
CCCCN1CCN=C1N(C)C,"inconclusive: 4.47 µM [inhibitor, full curve, poor fit]",–
COc1ccccc1CNCc1cc(Br)ccc1OC,–,inactive: -16.9%
CCn1cc(C(=O)O)c(=O)c2cc(F)c(N3CCN(C(=S)NC(=O)c4ccc(F)c(F)c4)CC3)cc21,"inconclusive: 28.2 µM [inhibitor, partial curve, poor fit]",–
COc1ccc(/C=C2\N=C(c3ccccc3)NNC2=O)cc1,"inconclusive: 89.1 µM [inhibitor, partial curve, poor fit]",–
COc1ccc(-c2ccccc2NC(=O)C2CCCN(Cc3ccccc3O)C2)cc1 (stereo not drawn),"inconclusive: 14.1 µM [inhibitor, partial curve, poor fit]",–
Cc1ccc(NS(=O)(=O)c2cc(-c3cnc(C)o3)ccc2C)c(C)c1,"inconclusive: 1.26 µM [inhibitor, single point]",–
CN/C(=C\[N+](=O)[O-])NCCSCc1ccc(CN(C)C)o1,"inconclusive: 14.1 µM [inhibitor, partial curve, poor fit]",–
COc1ccc(C2C3C(=O)N(Cc4ccccc4)C(=O)C3ON2c2ccccc2)c(OC)c1OC (stereo not drawn),–,inactive: 0%
Cc1cccc(OCC(=O)Nc2ccccc2N2CCCCC2)c1,"inconclusive: 0.355 µM [inhibitor, full curve, poor fit]",–
O=C(N[C@H]1CCN2C(=O)c3cc(-c4ccc(F)cc4F)ccc3NC(=O)[C@H]12)c1cnccn1,"inconclusive: 17.8 µM [inhibitor, full curve, poor fit]",–
NC(=O)C(c1ccc(Cl)cc1)c1ccc(Sc2ccc(Cl)cc2)nn1 (stereo not drawn),"inconclusive: 79.4 µM [inhibitor, single point]",–
COc1ccc2oc(-c3cccc(NC(=O)c4ccc(Br)o4)c3)nc2c1,"inconclusive: 11.2 µM [inhibitor, full curve, poor fit]",–
COc1ccc(NN=Nc2ccc([N+](=O)[O-])cc2)cc1,"inconclusive: 50.1 µM [inhibitor, partial curve, poor fit]",–
N#Cc1c(-c2ccccc2)cc(-c2cccs2)nc1SCS(=O)Cc1ccc(Cl)cc1 (stereo not drawn),"inconclusive: 0.224 µM [inhibitor, full curve, poor fit]",–
CCN(CC)CCOC(=O)c1ccc(NC(=O)COc2cc(=O)n(CC)c3ccccc23)cc1,"inconclusive: 56.2 µM [inhibitor, partial curve, poor fit]",–
O=c1cc(CN2CCCCC2)c2cc(O)ccc2o1,"inconclusive: 112 µM [inhibitor, single point]",–
COc1ccc(C2CC(=O)Nc3cc(OC)cc(OC)c32)cc1 (stereo not drawn),–,inactive: -5.1%
CCCNC(=O)C1C(c2cccc(NC(=O)c3ccc(C)cc3)c2)OC(=O)N1Cc1ccc(C)cc1 (stereo not drawn),–,inactive: 3.97%
NC(=O)c1ccccc1OCC(=O)N1CC(CNC(=O)Nc2ccccc2)C2(C1)CN(c1ccccc1)C2 (stereo not drawn),–,inactive: -4.02%
COc1ccccc1-c1cc(C(=O)NCc2ccc(F)cc2)no1,"inconclusive: 79.4 µM [inhibitor, partial curve, poor fit]",–
COc1ccc(C2=NN(C(=O)c3ccccc3)C(c3cccc([N+](=O)[O-])c3)C2)cc1 (stereo not drawn),–,inactive: 15.4%
Cc1ccc(Nc2sc(C(=O)c3ccccc3)c(N)c2C(=O)NC(C)C)cc1,"inconclusive: 56.2 µM [inhibitor, partial curve, poor fit]",–
O=C(/C=C/c1ccc(Cl)cc1)c1ccc(N2CCOCC2)cc1,"inconclusive: 56.2 µM [inhibitor, single point]",–

# Complete entries, looked up by structure. Order of values: Potency	activity change, negative = inhibition
# CCCCN1CCN=C1N(C)C is listed as inconclusive: 4.47 µM [inhibitor, full curve, poor fit]	–
# CCCNC(=O)C1C(c2cccc(NC(=O)c3ccc(C)cc3)c2)OC(=O)N1Cc1ccc(C)cc1 (stereo not drawn) is listed as –	inactive: 3.97%
# CCn1cc(C(=O)O)c(=O)c2cc(F)c(N3CCN(C(=S)NC(=O)c4ccc(F)c(F)c4)CC3)cc21 is listed as inconclusive: 28.2 µM [inhibitor, partial curve, poor fit]	–

# Going on with the list:

SMILES,Potency,"activity change, negative = inhibition"
COc1ccc(NC(=S)N(CCCN2CCOCC2)Cc2ccccn2)cc1,"inconclusive: 112 µM [inhibitor, single point]",–
N#Cc1nc(-c2cccs2)oc1NCCCN1CCOCC1,–,inactive: 4.49% [at 57.4 µM]
CC(C)Oc1ccc(C(=O)NC2(C(F)(F)F)NC(=O)N(CCCc3ccccc3)C2=O)cc1 (stereo not drawn),–,inactive: -34%
FC(F)(F)c1ccccc1N/N=C/c1cccnc1,"inconclusive: 44.7 µM [inhibitor, partial curve, poor fit]",–
Oc1ccccc1-c1n[nH]c(=S)n1Cc1ccccc1,"inconclusive: 50.1 µM [inhibitor, partial curve, poor fit]",–
O=C(COc1ccc(Cl)cc1)Nc1ccc(CN2CCOCC2)cc1,"inconclusive: 2.82 µM [inhibitor, single point]",–
N#Cc1ccc(C(=O)N2CCC(Cc3nc(-c4ccncc4)n[nH]3)C2)cc1 (stereo not drawn),–,inactive: -3.97%
Clc1ccc(CNc2ccc3nnc(-c4ccccc4)n3n2)cc1,"inconclusive: 112 µM [inhibitor, single point]",–
O=C(Oc1ccccc1)n1c(=S)oc2ccccc21,"inconclusive: 50.1 µM [inhibitor, partial curve, poor fit]",–
OC(CN1CCCCC1)CN(c1ccccc1)c1ccccc1 (stereo not drawn),–,inactive: 12.1%
CNc1nc2c(s1)C(c1ccc(Cl)cc1)CC(=O)N2 (stereo not drawn),"inconclusive: 8.91 µM [inhibitor, full curve]",–
CCOC(=O)c1cc2c(=O)n3ccccc3nc2n(CCOC)c1=NC(=O)c1ccncc1,"inconclusive: 89.1 µM [inhibitor, single point]",–
Cc1ccc(NC(=O)Cn2c(=O)oc3ccccc32)cc1Cl,inactive,–
Cc1ccc(-n2nc3n(c2=O)CCN(C(=O)C2CC2)C3)cc1,–,inactive: -4.56% [at 176 µM]
COCCNS(=O)(=O)c1ccc(C2CNC(=O)C2)cc1 (stereo not drawn),–,inactive: 256%
COc1cc(/C=C2\N=C(SC)SC2=O)cc(OC)c1OC,"inconclusive: 20 µM [inhibitor, full curve, poor fit]",–
COc1ccc(CCN=C(N)C(C)c2ccccc2)cc1OC (stereo not drawn),"inconclusive: 141 µM [inhibitor, single point]",–
O=[N+]([O-])c1ccc(Nc2nc(NC3CCCCC3)nc(N3CCCC3)n2)cc1,"inconclusive: 70.8 µM [inhibitor, partial curve, poor fit]",–
Cc1nn(-c2cccc(Br)c2)c(C)c1[C@@H]1C=C[C@@H](NC(=O)CCCC(=O)O)C1,"inconclusive: 15.8 µM [inhibitor, full curve, poor fit]",–
CCOC(=O)c1ccc(NC(=O)CSc2ccc(-c3sc(C)nc3C)nn2)cc1,–,inactive: 7.21%
CCCNC(=O)C(C)NC(=O)CSc1ccc(NC(C)=O)cc1 (stereo not drawn),"inconclusive: 89.1 µM [inhibitor, single point]",–
CCCNC(=O)CNC(=O)Cn1c(-c2ccccc2)cc2ccccc21,"inconclusive: 3.98 µM [inhibitor, full curve, poor fit]",–
CCCCOCCCNC(=O)C[C@@H]1C[C@@]2(C(=O)OC)CCCCC=C2N(Cc2cccc3ccccc23)C1=O,"inconclusive: 100 µM [inhibitor, single point]",–

SMILES,Potency,"activity change, negative = inhibition"
COc1ccccc1NC(=O)N1CCCC(Cn2cnc3cccnc32)C1 (stereo not drawn),–,inactive: 1.77%
Cc1cc(O)c(C(C)C)cc1N=Cc1ccccc1O,"inconclusive: 44.7 µM [inhibitor, partial curve, poor fit]",–
CCOC(CN=c1nc(N(C)C)ss1)OCC,active: 17.8 µM,–
Cc1ccc(S(=O)(=O)Nc2ccc(O)c(S(=O)(=O)c3ccc(C)cc3)c2)cc1,"inconclusive: 44.7 µM [inhibitor, partial curve, poor fit]",–
Cc1cccc(OCC(O)CN2CCNCC2)c1 (stereo not drawn),"inconclusive: 112 µM [inhibitor, single point]",–
CCCC(O)(c1ccc(Cl)cc1)C(CN1CCOCC1)c1ccc(Cl)cc1 (stereo not drawn),"inconclusive: 35.5 µM [inhibitor, single point]",–
COc1ccccc1Cc1c(C(C)(C)C)nc2ccc(C)cn12,"inconclusive: 0.316 µM [inhibitor, full curve, poor fit]",–
Cc1cc(N2CCCCCC2)nc2ccc(F)cc12,"inconclusive: 5.62 µM [inhibitor, full curve, poor fit]",–
Clc1ccc2nc(-c3ccco3)c(Cc3ccccc3)n2c1,active: 17.8 µM,–
C[C@](N)(COP(=O)(O)O)C(=O)O,"inconclusive: 4.47 µM [inhibitor, full curve, poor fit]",–
CC(NC(=O)Cc1ccc(-c2ccccc2)cc1)c1ccccc1 (stereo not drawn),"inconclusive: 35.5 µM [inhibitor, partial curve]",–
COc1ccc(CC(=O)N2CC(CO)C3(CCNCC3)C2)cc1OC (stereo not drawn),–,inactive: -19.4%
Clc1ccc2c(N/N=C/c3ccc(Br)cc3)ccnc2c1,"inconclusive: 50.1 µM [inhibitor, partial curve, poor fit]",–
Cc1ccc(S(=O)(=O)Nc2ccc3cc([N+](=O)[O-])ccc3c2[N+](=O)[O-])cc1,active: 22.4 µM,–
CCCNC(=O)c1ccc2c(=O)c(O)c(-c3ccc(C)cc3)[nH]c2c1,–,inactive: -13.9%
NCCOc1ccccc1Cc1ccccc1,–,inactive: 22.9%
O=C(N/N=C/c1c(O)ccc2ccccc12)c1ccc(CO)nc1,"inconclusive: 50.1 µM [inhibitor, partial curve, poor fit]",–
Cc1c(Cc2ccc3c(c2)OCO3)sc(NC(=O)C2CC2)c1C(N)=O,"inconclusive: 31.6 µM [inhibitor, partial curve, poor fit]",–
CC(C)CCNC(=O)c1c(OCC2CC2)cc(=O)n2c1CCCCC2,"inconclusive: 3.55 µM [inhibitor, full curve]",–
C[C@H](CO)N1C[C@H](C)[C@@H](CN(C)C(=O)Nc2cc(F)ccc2F)Oc2ncc(-c3cccc(F)c3)cc2C1=O,"inconclusive: 79.4 µM [inhibitor, single point]",–
O=C(CSc1ncc(-c2ccc(Cl)cc2)o1)Nc1ccc(Cl)cc1,–,inactive: -3.88%
O=C(CCCCc1nc2ccccc2s1)NC1CCCCCC1,–,inactive: 22.7%

# Quoted at random: two entries already listed.
SMILES,Potency,"activity change, negative = inhibition"
CC(NC(=O)Cc1ccc(-c2ccccc2)cc1)c1ccccc1 (stereo not drawn),"inconclusive: 35.5 µM [inhibitor, partial curve]",–
C[C@](N)(COP(=O)(O)O)C(=O)O,"inconclusive: 4.47 µM [inhibitor, full curve, poor fit]",–
